These are yes or no findings as the source states them, for the method shown. In cells and extracts the contact can be indirect. Some results given as binding are weak or reduced against the parent protein; the word gives no strength. Where a sequence is shown, tags or fusion partners need not be part of it.
Target: FLAG-tagged LNK, stably overexpressed in ATC cell lines (UniProt Q9UQQ2)
Test: co-IP; lysates of LNK-overexpressing ATC cell lines; antibodies against FLAG or myc overnight at 4 °C, protein A/G agarose beads, rabbit IgG as control; lysis buffer 20 mM Tris-HCl pH 7.5, 150 mM NaCl, 1% Nonidet P-40, 1% sodium deoxycholate; immunoblotting

By UniProt entry, the sequences of proteins in these tests, tags left out.
UniProt Q9UQQ2: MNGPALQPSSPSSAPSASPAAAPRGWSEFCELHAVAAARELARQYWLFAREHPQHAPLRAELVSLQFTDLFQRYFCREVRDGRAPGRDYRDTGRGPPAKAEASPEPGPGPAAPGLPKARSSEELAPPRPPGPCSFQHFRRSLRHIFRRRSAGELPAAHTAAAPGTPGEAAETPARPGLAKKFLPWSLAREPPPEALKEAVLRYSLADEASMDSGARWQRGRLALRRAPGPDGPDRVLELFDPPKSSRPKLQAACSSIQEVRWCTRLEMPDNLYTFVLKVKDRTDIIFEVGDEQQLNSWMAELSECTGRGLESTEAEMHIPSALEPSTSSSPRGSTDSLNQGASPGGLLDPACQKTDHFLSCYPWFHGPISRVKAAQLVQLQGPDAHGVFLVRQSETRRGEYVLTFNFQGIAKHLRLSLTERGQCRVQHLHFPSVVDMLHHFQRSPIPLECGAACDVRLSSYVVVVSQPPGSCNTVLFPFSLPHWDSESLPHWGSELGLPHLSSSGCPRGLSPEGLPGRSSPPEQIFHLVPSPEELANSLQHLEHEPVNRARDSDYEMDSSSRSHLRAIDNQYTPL
UniProt P62258: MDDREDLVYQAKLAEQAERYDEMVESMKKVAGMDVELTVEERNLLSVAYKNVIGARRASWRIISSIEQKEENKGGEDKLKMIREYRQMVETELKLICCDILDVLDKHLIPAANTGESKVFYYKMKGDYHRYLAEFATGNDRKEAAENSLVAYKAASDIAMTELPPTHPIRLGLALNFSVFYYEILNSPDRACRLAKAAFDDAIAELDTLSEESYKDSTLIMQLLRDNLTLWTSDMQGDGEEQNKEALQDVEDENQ

| binding | Molecule |
| --- | --- |
| binds | myc-tagged 14-3-3ε (YWHAE) in ATC cells (from UniProt P62258 1-255) |
| binds | myc-tagged 14-3-3γ (YWHAG) in ATC cells (protein, UniProt P61981 1-247) MVDREQLVQKARLAEQAERYDDMAAAMKNVTELNEPLSNEERNLLSVAYKNVVGARRSSWRVISSIEQKTSADGNEKKIEMVRAYREKIEKELEAVCQDVLSLLDNYLIKNCSETQYESKVFYLKMKGDYYRYLAEVATGEKRATVVESSEKAYSEAHEISKEHMQPTHPIRLGLALNYSVFYYEIQNAPEQACHLAKTAFDDAIAELDTLNEDSYKDSTLIMQLLRDNLTLWTSDQQDDDGGEGNN |

From paper PMC6953139
